Earlier results on 27 compounds are cited in publication PMC11219945, “Assessing genotoxic effects of chemotherapy agents by a robust in vitro assay based on mass spectrometric quantification of γ-H2AX in HepG2 cells” (Frontiers in Pharmacology, 2024).

Where a name gives a salt, the structure may show the parent alone.

For this series the following is noted: Table 1; cited from earlier work.
In the case of `O=c1[nH]cc(F)c(=O)[nH]1` [5-fluorouracil], the Required metabolic activation result is on record as “−”.

As for `Sc1ncnc2nc[nH]c12` [6-mercaptopurine], the Required metabolic activation entry was “+”.

On to `CCC1(c2ccc(N)cc2)CCC(=O)NC1=O` (stereo not drawn) [Aminoglutethimide], for which the Required metabolic activation entry is given as “−”.

For the compound `CC(C)(C#N)c1cc(Cn2cncn2)cc(C(C)(C)C#N)c1` [Anastrozole], the Required metabolic activation entry is “−”.

On to `N.N.O=C([O-])C1(C(=O)[O-])CCC1.[Pt+2]` [Carboplatin], for which the Required metabolic activation entry is “−”.

As to `CCCCCCNC(=O)n1cc(F)c(=O)[nH]c1=O` [Carmofur], the Required metabolic activation entry is “−”.

As for `N.N.[Cl][Pt][Cl]` [Cisplatin], the Required metabolic activation entry was “−”.

As to `O=P1(N(CCCl)CCCl)NCCCO1` (stereo not drawn) [Cyclophosphamide], the Required metabolic activation entry was “+”.

Consider `CN(C)/N=N/c1[nH]cnc1C(N)=O` [Dacarbazine], for which the Required metabolic activation result is recorded as “+”.

For `COc1cccc2c1C(=O)c1c(O)c3c(c(O)c1C2=O)C[C@@](O)(C(C)=O)C[C@@H]3O[C@H]1C[C@H](N)[C@H](O)[C@H](C)O1` [Daunorubicin], the Required metabolic activation result is “−”.

As to `COc1cccc2c1C(=O)c1c(O)c3c(c(O)c1C2=O)C[C@@](O)(C(=O)CO)C[C@@H]3O[C@H]1C[C@H](N)[C@H](O)[C@H](C)O1` [Doxorubicin], the Required metabolic activation entry is reported as “−”.

Regarding `COc1cccc2c1C(=O)c1c(O)c3c(c(O)c1C2=O)C[C@@](O)(C(=O)CO)C[C@@H]3O[C@H]1C[C@H](N)[C@@H](O)[C@H](C)O1` [Epirubicin hydrochloride], the Required metabolic activation result was “−”.

Consider `CC[C@@]1(O)C(=O)OCc2c1cc1n(c2=O)Cc2c-1nc1cc(F)c(C)c3c1c2[C@@H](N)CC3` [Exatecan], for which the Required metabolic activation result is listed as “−”.

For `C=C1C[C@@H]2[C@H](CC[C@]3(C)C(=O)CC[C@@H]23)[C@@]2(C)C=CC(=O)C=C12` [Exemestane], the Required metabolic activation entry is given as “−”.

Take `C[C@]12CCC(=O)C(O)=C1CC[C@@H]1[C@@H]2CC[C@]2(C)C(=O)CC[C@@H]12` [Formestane]: the Required metabolic activation result is reported as “−”.

For `NC(=O)NO` [Hydroxyurea], the Required metabolic activation result is on record as “−”.

As to `CCc1c2c(nc3ccc(OC(=O)N4CCC(N5CCCCC5)CC4)cc13)-c1cc3c(c(=O)n1C2)COC(=O)[C@]3(O)CC` [Irinotecan], the Required metabolic activation result was “−”.

Regarding `N#Cc1ccc(C(c2ccc(C#N)cc2)n2cncn2)cc1` [Letrozole], the Required metabolic activation result is “−”.

For the compound `O=C1[O][Pt]2([NH][C@@H]3CCCC[C@H]3[NH]2)[O]C1=O` [Oxaliplatin], the Required metabolic activation entry was “−”.

As to `COc1cccc2c1C(=O)c1c(O)c3c(c(O)c1C2=O)C[C@@](O)(C(=O)CO)C[C@@H]3O[C@H]1C[C@H](N)[C@H](O[C@@H]2CCCCO2)[C@H](C)O1` [Pirarubicin], the Required metabolic activation result is “−”.

For the compound `CC/C(=C(\c1ccccc1)c1ccc(OCCN(C)C)cc1)c1ccccc1` [Tamoxifen], the Required metabolic activation result was “+”.

Regarding `O=c1[nH]c(=O)n(C2CCCO2)cc1F` (stereo not drawn) [Tegafur], the Required metabolic activation entry is “−”.

For the compound `COc1cc([C@@H]2c3cc4c(cc3[C@@H](O[C@@H]3O[C@@H]5CO[C@@H](c6cccs6)O[C@H]5[C@H](O)[C@H]3O)[C@H]3COC(=O)[C@H]23)OCO4)cc(OC)c1O` [Teniposide], the Required metabolic activation entry was “−”.

Turning to `Nc1nc2nc[nH]c2c(=S)[nH]1` [Thioguanine], the Required metabolic activation result was “+”.

Consider `CC[C@@]1(O)C(=O)OCc2c1cc1n(c2=O)Cc2cc3c(CN(C)C)c(O)ccc3nc2-1` [Topotecan], for which the Required metabolic activation entry is recorded as “−”.

Take `CC[C@]1(O)C[C@H]2CN(CCc3c([nH]c4ccccc34)[C@@](C(=O)OC)(c3cc4c(cc3OC)N(C=O)[C@H]3[C@@](O)(C(=O)OC)[C@H](OC(C)=O)[C@]5(CC)C=CCN6CC[C@]43[C@@H]65)C2)C1` [Vincristine]: the Required metabolic activation entry is recorded as “−”.

Turning to `CCC1=C[C@@H]2CN(C1)Cc1c([nH]c3ccccc13)[C@@](C(=O)OC)(c1cc3c(cc1OC)N(C)[C@H]1[C@@](O)(C(=O)OC)[C@H](OC(C)=O)[C@]4(CC)C=CCN5CC[C@]31[C@@H]54)C2` [Vinorelbine], the Required metabolic activation result was “−”.
